Some of the results follow.
Experiments:
Assay in all cases: log2 fold change, soluble protein after heating vs DMSO (PISA); higher = thermal stabilisation; K562 lysate, 10 uM; active = over 0.2 and 3.5 SD of the protein, either way, in both replicates (recomputed)
[1] = compound: CCCS(=O)(=O)Nc1ccc(F)c(C(=O)c2c[nH]c3ncc(-c4ccc(Cl)cc4)cc23)c1F [vemurafenib]
Summary of the method: (§1)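 A 30 min treatment with 10 μM compound was applied to crude K562 extract at 1 mg/mL protein in PBS pH 7.4 with 1 mM MgCl2. Heating for 3 min spanned 48°C-58°C, after which aliquots were pooled, adjusted to 0.5% NP-40 at 4°C and spun at 21,000xg for 90 min. TMTpro 16plex LC-MS/MS of the supernatant, with channel sums equalised, gave values recorded as log-two fold change in thermal stability against solvent controls, from duplicates.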

Chains of the proteins cited; added tags and fusions are not shown. Lines headed by an entry give the natural chain unless they say otherwise; changes in a name come on top.
UniProt Q92997: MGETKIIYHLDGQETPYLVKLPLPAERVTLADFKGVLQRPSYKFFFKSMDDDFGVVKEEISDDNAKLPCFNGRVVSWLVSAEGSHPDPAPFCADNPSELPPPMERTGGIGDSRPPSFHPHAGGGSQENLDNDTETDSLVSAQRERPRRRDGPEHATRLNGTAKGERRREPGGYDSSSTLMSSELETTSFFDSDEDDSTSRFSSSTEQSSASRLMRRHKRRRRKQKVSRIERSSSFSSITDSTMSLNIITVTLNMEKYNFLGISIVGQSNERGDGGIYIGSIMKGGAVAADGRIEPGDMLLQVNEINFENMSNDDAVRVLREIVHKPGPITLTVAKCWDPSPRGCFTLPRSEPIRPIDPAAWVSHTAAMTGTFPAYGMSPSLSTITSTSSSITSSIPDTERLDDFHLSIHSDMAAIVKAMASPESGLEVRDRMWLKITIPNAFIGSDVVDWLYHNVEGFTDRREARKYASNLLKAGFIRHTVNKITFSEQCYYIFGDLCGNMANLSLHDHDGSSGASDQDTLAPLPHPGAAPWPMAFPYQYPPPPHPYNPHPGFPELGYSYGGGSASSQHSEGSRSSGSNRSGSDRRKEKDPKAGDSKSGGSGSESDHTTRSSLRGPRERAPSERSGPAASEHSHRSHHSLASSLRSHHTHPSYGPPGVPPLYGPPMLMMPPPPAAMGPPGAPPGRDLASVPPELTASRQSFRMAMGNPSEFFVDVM
UniProt Q14156: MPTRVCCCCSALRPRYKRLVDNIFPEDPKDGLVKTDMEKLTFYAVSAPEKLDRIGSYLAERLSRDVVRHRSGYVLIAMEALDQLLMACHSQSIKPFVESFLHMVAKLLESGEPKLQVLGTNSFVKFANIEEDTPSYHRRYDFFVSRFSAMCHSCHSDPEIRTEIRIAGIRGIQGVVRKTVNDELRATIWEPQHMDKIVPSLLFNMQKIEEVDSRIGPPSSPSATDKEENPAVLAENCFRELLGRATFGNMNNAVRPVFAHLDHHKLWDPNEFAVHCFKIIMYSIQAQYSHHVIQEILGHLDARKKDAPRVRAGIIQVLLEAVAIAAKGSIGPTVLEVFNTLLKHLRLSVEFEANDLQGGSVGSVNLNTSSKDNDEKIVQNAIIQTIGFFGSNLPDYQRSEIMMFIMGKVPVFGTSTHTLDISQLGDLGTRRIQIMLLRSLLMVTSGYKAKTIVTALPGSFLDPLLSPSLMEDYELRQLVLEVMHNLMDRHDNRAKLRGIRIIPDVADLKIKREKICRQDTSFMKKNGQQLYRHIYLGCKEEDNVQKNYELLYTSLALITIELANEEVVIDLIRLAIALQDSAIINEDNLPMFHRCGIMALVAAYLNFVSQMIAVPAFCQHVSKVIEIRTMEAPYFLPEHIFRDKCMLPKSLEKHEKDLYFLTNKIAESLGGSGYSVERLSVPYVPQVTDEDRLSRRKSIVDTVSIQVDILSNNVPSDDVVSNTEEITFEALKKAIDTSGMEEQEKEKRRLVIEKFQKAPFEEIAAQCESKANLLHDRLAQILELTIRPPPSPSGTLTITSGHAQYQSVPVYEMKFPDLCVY
UniProt Q02487, whole entry, looked up: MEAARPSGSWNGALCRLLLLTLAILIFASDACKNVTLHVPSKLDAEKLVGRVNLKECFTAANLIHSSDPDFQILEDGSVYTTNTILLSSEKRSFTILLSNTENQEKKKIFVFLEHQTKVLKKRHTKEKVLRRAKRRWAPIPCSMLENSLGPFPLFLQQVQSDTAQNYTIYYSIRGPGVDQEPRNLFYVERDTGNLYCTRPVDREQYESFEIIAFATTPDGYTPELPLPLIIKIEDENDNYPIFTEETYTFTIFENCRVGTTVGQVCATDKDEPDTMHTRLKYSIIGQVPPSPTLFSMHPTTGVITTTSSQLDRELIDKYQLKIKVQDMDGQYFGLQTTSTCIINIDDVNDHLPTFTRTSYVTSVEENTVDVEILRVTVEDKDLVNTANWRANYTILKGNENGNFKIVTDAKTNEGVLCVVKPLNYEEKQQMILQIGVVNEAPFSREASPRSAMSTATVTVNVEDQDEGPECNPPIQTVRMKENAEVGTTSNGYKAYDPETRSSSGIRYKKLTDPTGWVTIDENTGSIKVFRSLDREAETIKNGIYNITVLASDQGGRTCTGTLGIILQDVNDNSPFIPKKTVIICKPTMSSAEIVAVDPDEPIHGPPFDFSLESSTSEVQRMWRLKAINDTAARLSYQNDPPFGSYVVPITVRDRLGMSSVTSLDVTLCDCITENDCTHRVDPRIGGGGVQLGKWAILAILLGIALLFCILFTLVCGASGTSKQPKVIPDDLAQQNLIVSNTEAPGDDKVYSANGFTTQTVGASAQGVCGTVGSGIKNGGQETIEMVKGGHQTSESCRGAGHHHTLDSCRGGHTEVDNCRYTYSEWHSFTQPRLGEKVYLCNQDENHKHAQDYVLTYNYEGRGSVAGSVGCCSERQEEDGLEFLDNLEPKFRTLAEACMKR
UniProt Q9NRW4: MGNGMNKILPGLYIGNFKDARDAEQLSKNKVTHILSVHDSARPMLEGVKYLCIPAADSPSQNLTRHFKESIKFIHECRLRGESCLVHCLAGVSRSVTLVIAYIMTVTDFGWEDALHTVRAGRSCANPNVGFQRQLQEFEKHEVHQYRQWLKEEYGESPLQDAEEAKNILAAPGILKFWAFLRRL
UniProt Q92782, whole entry, looked up: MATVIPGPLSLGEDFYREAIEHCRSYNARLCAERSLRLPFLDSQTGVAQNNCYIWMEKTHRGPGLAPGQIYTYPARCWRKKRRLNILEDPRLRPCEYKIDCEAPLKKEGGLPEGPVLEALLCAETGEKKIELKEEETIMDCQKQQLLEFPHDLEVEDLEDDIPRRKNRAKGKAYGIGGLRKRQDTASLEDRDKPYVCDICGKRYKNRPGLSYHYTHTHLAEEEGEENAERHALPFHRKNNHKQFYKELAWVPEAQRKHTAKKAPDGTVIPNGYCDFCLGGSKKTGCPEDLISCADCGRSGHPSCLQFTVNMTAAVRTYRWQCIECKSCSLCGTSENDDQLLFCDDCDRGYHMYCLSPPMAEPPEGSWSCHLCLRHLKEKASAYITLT
UniProt Q96G46: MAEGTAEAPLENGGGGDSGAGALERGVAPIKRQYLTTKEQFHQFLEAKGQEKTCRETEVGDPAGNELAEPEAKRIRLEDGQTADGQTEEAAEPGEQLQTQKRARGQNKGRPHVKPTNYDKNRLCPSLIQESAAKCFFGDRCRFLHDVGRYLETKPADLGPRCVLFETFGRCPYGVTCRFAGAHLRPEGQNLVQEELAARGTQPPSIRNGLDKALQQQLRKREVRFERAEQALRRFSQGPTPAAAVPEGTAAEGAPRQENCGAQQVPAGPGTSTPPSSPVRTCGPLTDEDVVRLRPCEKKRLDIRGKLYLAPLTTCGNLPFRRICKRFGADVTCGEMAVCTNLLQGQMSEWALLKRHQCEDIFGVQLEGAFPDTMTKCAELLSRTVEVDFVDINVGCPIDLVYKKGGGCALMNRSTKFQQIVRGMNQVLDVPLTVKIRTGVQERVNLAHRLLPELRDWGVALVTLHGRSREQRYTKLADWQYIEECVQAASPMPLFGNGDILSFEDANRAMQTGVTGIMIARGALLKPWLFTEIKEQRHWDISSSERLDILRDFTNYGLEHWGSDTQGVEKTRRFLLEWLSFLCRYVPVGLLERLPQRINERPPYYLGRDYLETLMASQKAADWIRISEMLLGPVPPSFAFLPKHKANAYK
UniProt Q96FN9: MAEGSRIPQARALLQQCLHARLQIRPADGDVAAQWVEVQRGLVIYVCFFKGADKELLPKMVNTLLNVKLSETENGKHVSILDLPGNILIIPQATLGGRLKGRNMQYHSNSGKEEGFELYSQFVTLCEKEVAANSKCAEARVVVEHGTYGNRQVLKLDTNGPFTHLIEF
UniProt Q96KS0, whole entry, looked up: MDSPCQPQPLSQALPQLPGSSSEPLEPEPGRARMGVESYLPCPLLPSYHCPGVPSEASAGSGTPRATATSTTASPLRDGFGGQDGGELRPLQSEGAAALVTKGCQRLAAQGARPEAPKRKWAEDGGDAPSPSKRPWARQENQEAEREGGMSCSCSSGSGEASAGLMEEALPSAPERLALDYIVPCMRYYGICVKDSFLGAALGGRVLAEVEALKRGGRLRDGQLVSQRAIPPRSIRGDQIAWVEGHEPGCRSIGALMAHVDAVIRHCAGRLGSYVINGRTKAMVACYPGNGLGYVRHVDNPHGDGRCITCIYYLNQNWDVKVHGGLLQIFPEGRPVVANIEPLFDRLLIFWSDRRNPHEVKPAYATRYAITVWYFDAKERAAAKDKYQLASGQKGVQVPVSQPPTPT
UniProt Q86UW9: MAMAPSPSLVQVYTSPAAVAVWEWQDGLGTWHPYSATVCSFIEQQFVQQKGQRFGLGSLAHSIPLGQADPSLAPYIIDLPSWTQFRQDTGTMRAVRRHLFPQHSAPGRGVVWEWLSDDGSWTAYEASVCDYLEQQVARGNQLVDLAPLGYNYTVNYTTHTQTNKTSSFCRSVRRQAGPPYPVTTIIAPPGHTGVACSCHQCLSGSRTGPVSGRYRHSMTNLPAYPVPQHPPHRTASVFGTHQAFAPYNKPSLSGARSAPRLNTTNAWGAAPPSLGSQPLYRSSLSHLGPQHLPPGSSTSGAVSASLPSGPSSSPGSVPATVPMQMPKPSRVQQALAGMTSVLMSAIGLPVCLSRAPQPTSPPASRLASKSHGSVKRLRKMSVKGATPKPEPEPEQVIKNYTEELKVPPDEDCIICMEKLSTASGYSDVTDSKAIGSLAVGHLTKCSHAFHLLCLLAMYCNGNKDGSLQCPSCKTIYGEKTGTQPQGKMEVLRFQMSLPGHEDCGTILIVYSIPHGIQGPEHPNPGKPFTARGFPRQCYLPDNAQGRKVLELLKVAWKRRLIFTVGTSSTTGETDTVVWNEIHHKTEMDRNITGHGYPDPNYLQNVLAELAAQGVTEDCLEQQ
UniProt Q96FX2: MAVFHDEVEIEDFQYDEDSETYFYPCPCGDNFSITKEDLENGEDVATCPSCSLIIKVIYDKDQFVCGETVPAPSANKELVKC
UniProt Q9UHF1: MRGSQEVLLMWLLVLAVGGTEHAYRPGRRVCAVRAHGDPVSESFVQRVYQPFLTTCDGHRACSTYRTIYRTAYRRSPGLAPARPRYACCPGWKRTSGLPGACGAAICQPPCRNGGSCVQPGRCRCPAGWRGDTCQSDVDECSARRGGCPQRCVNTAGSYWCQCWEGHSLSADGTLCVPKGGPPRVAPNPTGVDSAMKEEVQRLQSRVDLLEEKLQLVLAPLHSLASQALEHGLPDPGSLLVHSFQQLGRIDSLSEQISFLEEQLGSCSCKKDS
UniProt Q5VUJ9: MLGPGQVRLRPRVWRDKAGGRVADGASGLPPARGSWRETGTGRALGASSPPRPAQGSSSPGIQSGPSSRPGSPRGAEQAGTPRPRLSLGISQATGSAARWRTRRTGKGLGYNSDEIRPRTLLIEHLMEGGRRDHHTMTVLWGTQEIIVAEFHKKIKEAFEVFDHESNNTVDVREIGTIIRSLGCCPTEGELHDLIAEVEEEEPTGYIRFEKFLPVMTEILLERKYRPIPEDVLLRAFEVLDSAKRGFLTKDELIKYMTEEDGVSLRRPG
UniProt Q8WTR2: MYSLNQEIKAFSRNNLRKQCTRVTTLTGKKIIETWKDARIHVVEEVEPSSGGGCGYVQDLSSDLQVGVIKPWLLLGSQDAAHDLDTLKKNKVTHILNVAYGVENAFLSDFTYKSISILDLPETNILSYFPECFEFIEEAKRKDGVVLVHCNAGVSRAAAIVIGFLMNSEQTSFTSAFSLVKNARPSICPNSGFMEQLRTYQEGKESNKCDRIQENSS
UniProt A8K855: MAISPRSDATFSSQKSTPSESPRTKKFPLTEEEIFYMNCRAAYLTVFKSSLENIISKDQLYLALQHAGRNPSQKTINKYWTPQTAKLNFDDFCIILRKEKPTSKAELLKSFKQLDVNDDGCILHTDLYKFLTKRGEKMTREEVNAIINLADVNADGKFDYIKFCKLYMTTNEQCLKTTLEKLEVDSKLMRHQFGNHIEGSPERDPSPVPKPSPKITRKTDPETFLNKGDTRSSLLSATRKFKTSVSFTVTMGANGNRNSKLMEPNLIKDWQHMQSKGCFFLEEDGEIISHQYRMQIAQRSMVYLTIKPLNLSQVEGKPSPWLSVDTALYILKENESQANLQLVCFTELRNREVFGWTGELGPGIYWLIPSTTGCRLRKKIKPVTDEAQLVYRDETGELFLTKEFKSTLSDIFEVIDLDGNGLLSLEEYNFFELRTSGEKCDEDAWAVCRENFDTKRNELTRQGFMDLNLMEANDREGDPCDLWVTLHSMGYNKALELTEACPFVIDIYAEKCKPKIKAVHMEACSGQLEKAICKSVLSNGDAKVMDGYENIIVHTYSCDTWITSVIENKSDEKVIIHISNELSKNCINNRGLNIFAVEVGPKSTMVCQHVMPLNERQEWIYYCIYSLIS

[2] = compound: CCCS(=O)(=O)Nc1ccc(F)c(C(=O)c2c[nH]c3ncc(Cl)cc23)c1F
Summary of the method: as §1

[3] = compound: CCN(CCCOc1ccc2c(Nc3cc(CC(=O)Nc4cccc(F)c4)[nH]n3)ncnc2c1)CCOP(=O)(O)O [barasertib]
Summary of the method: as §1

[4] = compound: CC[C@@H]1C(=O)N(C)c2cnc(Nc3ccc(C(=O)NC4CCN(C)CC4)cc3OC)nc2N1C1CCCC1
Summary of the method: as §1

[5] = compound: CC[C@@H]1C(=O)N(C)c2cnc(Nc3ccc(C(=O)N[C@H]4CC[C@H](N5CCN(CC6CC6)CC5)CC4)cc3OC)nc2N1C(C)C [volasertib]
Summary of the method: as §1

[6] = compound: CCn1c(C(=O)N(C2CC2)C2CC2)cc2c3c(ncn3C)c(Nc3cc(C)n(C)n3)nc21
Summary of the method: as §1

[7] = compound: CCn1cc(-c2ccnc3[nH]c(-c4cccc(CN(C)C)c4)cc23)c(-c2ccc(NC(=O)N(C)C)cc2)n1
Summary of the method: as §1

[8] = compound: CN1CCC(CNc2ccc3ncc(-c4cccc(OC(F)(F)F)c4)n3n2)CC1
Summary of the method: as §1

[9] = compound: CN1CCN(c2nc(C3=C(c4c[nH]c5ccccc45)C(=O)NC3=O)c3ccccc3n2)CC1 [sotrastaurin]
Summary of the method: as §1

[10] = compound: CN1CC[C@H](c2c(O)cc(O)c3c(=O)cc(-c4ccccc4Cl)oc23)[C@H](O)C1 [alvocidib]
Summary of the method: as §1

[11] = compound: CN1CCc2c(c3ccccc3n2Cc2ccc(C(=O)NO)cc2)C1 [Tubastatin A]
Summary of the method: as §1

[12] = compound: CNC(=O)C1=CC=CC=C1NC2=NC(=NC=C2Cl)NC3=C(C=C(C=C3)N4CCOCC4)OC
Summary of the method: as §1

[13] = compound: CNC(=O)c1ccc(Nc2ncc(C(F)(F)F)c(NCc3nccnc3N(C)S(C)(=O)=O)n2)cc1 [defactinib]
Summary of the method: as §1

[14] = compound: COC(=O)N[C@@H](C)CNc1nccc(-c2cn(C(C)C)nc2-c2cc(Cl)cc(NS(C)(=O)=O)c2F)n1 [encorafenib]
Summary of the method: as §1

[15] = compound: COC(=O)[C@H](CCSC)NC(=O)C1=C(C=C(C=C1)NC[C@H](CS)N)C2=CC=CC=C2
Summary of the method: as §1

[16] = compound: COc1cc(Nc2ncc3c(n2)-c2ccc(Cl)cc2C(c2c(F)cccc2OC)=NC3)ccc1C(=O)O [alisertib]
Summary of the method: as §1

[17] = compound: COc1cc2nc(-c3cc(F)ccc3O)nc(N[C@@H]3CNC[C@H]3C(C)(C)O)c2cc1OC
Summary of the method: as §1

[18] = compound: COc1cc2ncnc(Nc3ccc(F)c(Cl)c3)c2cc1OCCCN1CCOCC1 [gefitinib]
Summary of the method: as §1

[19] = compound: CN1CCN(CCOc2cc(OC3CCOCC3)c3c(Nc4c(Cl)ccc5c4OCO5)ncnc3c2)CC1 [saracatinib]
Summary of the method: as §1

[20] = compound: CNc1nc(-c2ccc3c(N)n[nH]c3c2)cc(N2C[C@@H](C(=O)NC3CCCCC3)CC[C@H]2C)n1
Summary of the method: as §1

Target | log2 fold change [1] | log2 fold change [2] | log2 fold change [3] | log2 fold change [4] | log2 fold change [5] | log2 fold change [6] | log2 fold change [7] | log2 fold change [8] | log2 fold change [9] | log2 fold change [10] | log2 fold change [11] | log2 fold change [12] | log2 fold change [13] | log2 fold change [14] | log2 fold change [15] | log2 fold change [16] | log2 fold change [17] | log2 fold change [18] | log2 fold change [19] | log2 fold change [20]
DVL3 (UniProt Q92997) | inactive: 0.309 | inactive: 0.113 | inactive: 0.083 | inactive: 0.069 | inactive: -0.064 | inactive: -0.012 | inactive: -0.252 | inactive: -0.019 | inactive: -0.047 | inactive: -0.156 | inactive: -0.277 | inactive: 0 | inactive: -0.203 | inactive: 0.143 | inactive: -0.078 | inactive: -0.02 | inactive: 0.021 | inactive: 0.015 |  | 
EFR3A (UniProt Q14156) | inactive: -0.002 | inactive: -0.012 | inactive: 0.354 | inactive: -0.25 | inactive: 0.007 | inactive: 0.116 | inactive: -0.136 | inactive: 0.035 |  | inactive: -0.01 | inactive: -0.018 | inactive: 0.031 | inactive: 0.005 | inactive: 0.054 | inactive: 0.035 | inactive: 0.061 | inactive: 0.01 | inactive: -0.066 | inactive: 0.072 | inactive: -0.12
DSC2 (UniProt Q02487) | inactive: -0.018 |  | inactive: 0.045 | inactive: 0.082 |  | inactive: -0.013 | inactive: -0.049 | inactive: 0.067 | inactive: 0.28 | inactive: -0.014 | inactive: 0.132 | inactive: -0.086 | inactive: 0.094 | inactive: -0.216 | inactive: 0.188 |  |  |  | inactive: 0.197 | inactive: 0.048
DUSP22 isoform 2 (UniProt Q9NRW4) | inactive: 0.134 | inactive: -0.109 | inactive: -0.016 |  | inactive: 0.006 | inactive: -0.033 | inactive: -0.125 | inactive: 0.052 |  | inactive: 0.034 | inactive: -0.079 | inactive: -0.066 | inactive: -0.085 |  |  | inactive: 0.18 | inactive: -0.11 | inactive: -0.101 | inactive: 0.009 | inactive: 0.043
DPF1 isoform 2 (UniProt Q92782) | inactive: 0.066 | inactive: 0.038 | inactive: 0.041 | inactive: 0.07 | inactive: -0.109 | inactive: 0.017 |  |  | inactive: -0.047 |  | inactive: 0.056 | inactive: 0.023 | inactive: 0.165 | inactive: 0.069 | inactive: 0.004 |  | inactive: -0.17 |  | inactive: 0.047 | inactive: -0.005
DUS3L (UniProt Q96G46) | inactive: -0.055 | inactive: 0.004 | inactive: -0.038 | inactive: -0.025 | inactive: 0.005 | inactive: -0.043 | active: 0.246 | inactive: -0.048 | inactive: 0.033 | inactive: 0.076 | inactive: -0.065 | inactive: -0.012 | inactive: -0.023 | inactive: 0.091 | inactive: -0.024 | inactive: -0.02 | inactive: 0.036 | inactive: -0.005 | inactive: 0.021 | inactive: 0.001
DYNC2H1 isoform 2 (UniProt Q8NCM8) | inactive: -0.049 | inactive: 0.005 | inactive: 0.28 | inactive: -0.076 | inactive: -0.013 | inactive: -0.11 | inactive: 0.025 | inactive: -0.002 |  | inactive: -0.023 | inactive: 0.005 | inactive: 0.023 | inactive: -0.015 | inactive: -0.062 | inactive: -0.032 | inactive: 0.031 | inactive: 0.027 | inactive: -0.062 | inactive: -0.131 | inactive: 0.025
DTD2 (UniProt Q96FN9) | inactive: -0.161 | inactive: -0.134 | inactive: 0.184 | inactive: 0.031 | inactive: 0.044 | inactive: 0.055 | inactive: -0.01 | inactive: 0.076 | inactive: 0.072 | inactive: -0.088 | inactive: -0.112 | inactive: 0.075 | inactive: -0.086 | inactive: -0.115 | inactive: -0.146 |  | inactive: 0.218 |  | inactive: -0.055 | inactive: 0.092
EGLN2 (UniProt Q96KS0) | inactive: 0.327 |  |  | inactive: -0.18 |  | inactive: -0.193 | inactive: -0.376 | inactive: 0.094 | inactive: 0.007 | inactive: 0.064 | inactive: 0.062 |  | inactive: 0.216 | inactive: 0.017 | inactive: 0.007 |  |  |  |  | 
DTX2 (UniProt Q86UW9) |  | inactive: 0 | inactive: -0.012 |  | inactive: 0.055 |  | inactive: -0.04 | inactive: 0.036 | inactive: -0.004 | inactive: 0.152 |  | inactive: -0.004 |  |  |  | inactive: 0.061 | inactive: -0.093 | inactive: 0.042 | inactive: -0.178 | inactive: 0.035
DPH3 (UniProt Q96FX2) | inactive: 0.007 |  | inactive: 0.102 | inactive: -0.063 |  |  | inactive: 0.045 | inactive: 0.024 | inactive: -0.125 | inactive: -0.043 |  |  | inactive: -0.042 | inactive: -0.017 | inactive: -0.151 |  |  |  | inactive: 0.016 | inactive: 0.142
EGFL7 (UniProt Q9UHF1) | inactive: 0.092 |  |  |  |  |  |  |  |  |  |  |  | inactive: -0.094 |  |  |  |  |  |  | 
EFCAB2 isoform 2 (UniProt Q5VUJ9) |  |  |  | inactive: -0.041 |  | inactive: 0.035 | inactive: 0.017 | inactive: 0.056 | inactive: -0.055 | inactive: -0.035 | inactive: -0.083 | inactive: -0.044 |  | inactive: -0.027 | inactive: -0.004 | inactive: -0.045 |  | inactive: 0.024 |  | 
DUSP12 (UniProt V9GYV5) |  |  |  |  |  |  | inactive: 0.04 | inactive: -0.299 |  | inactive: 0.019 |  |  |  |  |  |  |  |  |  | 
DUSP19 (UniProt Q8WTR2) |  | inactive: 0.07 | inactive: 0.068 |  | inactive: 0.206 | inactive: -0.06 | inactive: -0.556 | inactive: 0.303 | inactive: 0.039 | inactive: -0.066 | inactive: -0.029 | inactive: -0.039 |  |  |  | inactive: -0.143 | inactive: 0.038 | inactive: 0.272 |  | 
EFCAB7 (UniProt A8K855) |  |  |  |  |  | inactive: 0.004 |  |  |  |  | inactive: 0.137 |  |  |  |  |  |  |  |  | 

Individual results from the results shown.
Value of DUSP22 isoform 2 (UniProt Q9NRW4) under log2 fold change [8]: inactive: 0.052
Value of DUSP19 (UniProt Q8WTR2) under log2 fold change [3]: inactive: 0.068

Source: the supplement of paper PMC10849652
